Experimental data: paper PMC6639327, “PLPP/CIN-mediated NEDD4-2 S448 dephosphorylation regulates neuronal excitability via GluA1 ubiquitination” (Cell Death & Disease, 2019)
Results are given in words; binding and its absence hold for the method and conditions named. In cells and extracts the contact can be indirect. Some entries that bind do so weakly or less than the wild type.

Amino acid sequences for entries named in this document (tags omitted).
UniProt Q8CFI0: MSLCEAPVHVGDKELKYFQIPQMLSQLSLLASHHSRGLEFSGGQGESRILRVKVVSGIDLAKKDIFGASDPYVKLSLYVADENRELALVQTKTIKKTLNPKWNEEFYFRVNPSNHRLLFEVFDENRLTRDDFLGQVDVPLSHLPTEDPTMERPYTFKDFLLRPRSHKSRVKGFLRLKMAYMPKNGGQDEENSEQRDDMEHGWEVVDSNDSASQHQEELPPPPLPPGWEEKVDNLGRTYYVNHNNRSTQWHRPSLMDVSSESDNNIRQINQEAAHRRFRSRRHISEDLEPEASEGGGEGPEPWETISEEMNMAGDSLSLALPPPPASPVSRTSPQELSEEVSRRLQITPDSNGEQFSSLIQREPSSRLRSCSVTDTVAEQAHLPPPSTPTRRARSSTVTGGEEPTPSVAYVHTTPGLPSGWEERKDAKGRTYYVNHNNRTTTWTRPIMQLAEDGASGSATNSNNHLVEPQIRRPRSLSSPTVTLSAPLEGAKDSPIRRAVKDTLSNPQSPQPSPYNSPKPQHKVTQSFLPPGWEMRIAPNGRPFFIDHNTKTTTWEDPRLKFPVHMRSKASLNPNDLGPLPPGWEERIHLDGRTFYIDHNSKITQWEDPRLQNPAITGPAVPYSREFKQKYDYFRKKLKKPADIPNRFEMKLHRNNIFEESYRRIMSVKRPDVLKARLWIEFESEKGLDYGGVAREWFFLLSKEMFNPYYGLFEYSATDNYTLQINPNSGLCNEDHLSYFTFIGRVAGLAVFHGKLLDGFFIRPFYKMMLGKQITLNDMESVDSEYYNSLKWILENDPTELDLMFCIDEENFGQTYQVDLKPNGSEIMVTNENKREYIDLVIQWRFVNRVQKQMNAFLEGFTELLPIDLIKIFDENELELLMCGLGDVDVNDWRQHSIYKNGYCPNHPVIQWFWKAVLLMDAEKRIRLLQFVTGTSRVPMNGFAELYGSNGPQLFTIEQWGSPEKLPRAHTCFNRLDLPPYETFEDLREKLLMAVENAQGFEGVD

Molecular target: Neuronal precursor cell expressed developmentally downregulated 4-2 (NEDD4-2) (mouse (endogenous in hippocampus)) (UniProt Q8CFI0)
Test: co-IP; mouse hippocampal tissue lysed in RIPA buffer with protease and phosphatase inhibitors; equal protein incubated with NEDD4-2, ubiquitin or GluA1 antibody and protein G sepharose at 4 °C overnight; western blot; WT, PLPP/CIN^-/- and PLPP/CIN^Tg mice, saline or KA (25 mg/kg, 2 h), control or NEDD4-2 siRNA

binding: binds
B1: Pyridoxal-5'-phosphate phosphatase/chronophin (PLPP/CIN) (enzyme, mouse (endogenous in hippocampus), UniProt P60487 1-292, looked up)
chain: MARCERLRGAALRDVLGQAQGVLFDCDGVLWNGERIVPGAPELLQRLARAGKNTLFVSNNSRRARPELALRFARLGFAGLRAEQLFSSALCAARLLRQRLSGPPDASGAVFVLGGEGLRAELRAAGLRLAGDPGEDPRVRAVLVGYDEQFSFSRLTEACAHLRDPDCLLVATDRDPWHPLSDGSRTPGTGSLAAAVETASGRQALVVGKPSPYMFQCITEDFSVDPARTLMVGDRLETDILFGHRCGMTTVLTLTGVSSLEEAQAYLTAGQRDLVPHYYVESIADLMEGLED
notes: Pyridoxal-5'-phosphate phosphatase/chronophin, endogenous in the hippocampus of WT mice; source: endogenous, mouse hippocampal tissue lysate (RIPA buffer)
